Drawing on the supplement of paper PMC12819154, “High-throughput peptide-centric local stability assay extends protein–ligand identification to membrane proteins, tissues and bacteria” (Nature Structural & Molecular Biology, 2025), this text covers log2 fold change for 17 targets.

By UniProt entry, the sequences of proteins in these tests, tags left out. Where a name states a change or a piece, a line headed by the entry shows the natural chain unless it says otherwise.
UniProt P37757: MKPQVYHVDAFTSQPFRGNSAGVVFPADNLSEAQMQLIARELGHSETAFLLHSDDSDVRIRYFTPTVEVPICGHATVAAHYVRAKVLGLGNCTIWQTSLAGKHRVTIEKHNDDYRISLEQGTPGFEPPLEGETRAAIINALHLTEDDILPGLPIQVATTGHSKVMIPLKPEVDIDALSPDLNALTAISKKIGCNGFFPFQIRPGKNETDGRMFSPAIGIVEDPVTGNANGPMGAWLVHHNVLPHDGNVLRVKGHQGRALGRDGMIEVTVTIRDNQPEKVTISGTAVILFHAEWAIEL
UniProt P32675: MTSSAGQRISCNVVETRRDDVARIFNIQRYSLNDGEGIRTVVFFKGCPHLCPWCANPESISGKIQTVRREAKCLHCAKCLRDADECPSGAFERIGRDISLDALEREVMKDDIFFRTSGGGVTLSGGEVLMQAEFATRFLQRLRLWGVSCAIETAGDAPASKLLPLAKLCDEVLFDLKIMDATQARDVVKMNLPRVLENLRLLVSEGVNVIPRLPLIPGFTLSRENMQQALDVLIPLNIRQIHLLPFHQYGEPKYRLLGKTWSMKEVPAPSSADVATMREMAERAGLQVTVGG
UniProt P37610: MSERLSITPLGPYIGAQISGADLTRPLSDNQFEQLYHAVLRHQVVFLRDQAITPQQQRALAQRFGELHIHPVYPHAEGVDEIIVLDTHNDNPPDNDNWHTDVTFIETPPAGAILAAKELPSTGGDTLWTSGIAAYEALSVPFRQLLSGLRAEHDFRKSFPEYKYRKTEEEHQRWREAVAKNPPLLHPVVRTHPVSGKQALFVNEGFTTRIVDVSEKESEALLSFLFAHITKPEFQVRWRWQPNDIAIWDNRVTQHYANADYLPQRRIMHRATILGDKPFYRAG
UniProt P37329: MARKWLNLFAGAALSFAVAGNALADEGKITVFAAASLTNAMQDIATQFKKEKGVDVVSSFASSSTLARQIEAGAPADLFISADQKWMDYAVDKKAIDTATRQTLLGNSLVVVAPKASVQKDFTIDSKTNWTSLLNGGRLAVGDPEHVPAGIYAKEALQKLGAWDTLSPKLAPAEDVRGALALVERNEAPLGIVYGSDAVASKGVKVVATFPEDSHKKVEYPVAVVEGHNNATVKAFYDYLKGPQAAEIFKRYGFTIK
UniProt P39321: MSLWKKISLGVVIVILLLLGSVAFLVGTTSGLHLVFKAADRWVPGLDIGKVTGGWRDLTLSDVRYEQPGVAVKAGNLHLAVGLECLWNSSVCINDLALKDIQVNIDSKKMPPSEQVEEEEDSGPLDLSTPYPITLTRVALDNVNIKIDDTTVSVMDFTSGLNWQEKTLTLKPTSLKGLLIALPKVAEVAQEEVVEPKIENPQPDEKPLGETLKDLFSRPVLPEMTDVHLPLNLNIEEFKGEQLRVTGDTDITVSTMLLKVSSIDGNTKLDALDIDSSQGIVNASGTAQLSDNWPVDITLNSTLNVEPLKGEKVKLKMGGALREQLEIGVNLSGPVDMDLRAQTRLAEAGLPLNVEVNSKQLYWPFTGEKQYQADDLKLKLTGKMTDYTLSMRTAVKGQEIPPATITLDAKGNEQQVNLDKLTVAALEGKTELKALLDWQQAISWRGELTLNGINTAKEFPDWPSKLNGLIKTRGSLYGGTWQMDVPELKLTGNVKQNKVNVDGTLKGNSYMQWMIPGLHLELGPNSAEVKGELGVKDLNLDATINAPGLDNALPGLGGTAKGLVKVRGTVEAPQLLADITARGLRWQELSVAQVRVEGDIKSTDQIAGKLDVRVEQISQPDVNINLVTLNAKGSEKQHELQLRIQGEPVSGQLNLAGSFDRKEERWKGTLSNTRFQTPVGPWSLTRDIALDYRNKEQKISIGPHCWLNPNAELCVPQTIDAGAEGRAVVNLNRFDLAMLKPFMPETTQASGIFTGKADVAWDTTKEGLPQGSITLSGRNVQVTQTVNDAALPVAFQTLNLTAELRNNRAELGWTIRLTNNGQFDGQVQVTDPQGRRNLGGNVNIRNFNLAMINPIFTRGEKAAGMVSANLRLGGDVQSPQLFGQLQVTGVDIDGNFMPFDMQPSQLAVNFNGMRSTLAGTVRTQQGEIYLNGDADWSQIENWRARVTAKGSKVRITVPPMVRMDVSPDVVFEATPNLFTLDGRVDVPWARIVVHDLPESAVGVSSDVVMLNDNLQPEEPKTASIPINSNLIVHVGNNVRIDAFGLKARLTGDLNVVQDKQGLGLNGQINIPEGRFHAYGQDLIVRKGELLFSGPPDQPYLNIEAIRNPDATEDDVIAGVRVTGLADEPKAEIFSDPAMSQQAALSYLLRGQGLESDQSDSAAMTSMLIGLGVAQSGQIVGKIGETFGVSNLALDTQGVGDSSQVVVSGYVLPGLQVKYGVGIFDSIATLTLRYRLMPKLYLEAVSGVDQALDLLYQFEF
UniProt P33014: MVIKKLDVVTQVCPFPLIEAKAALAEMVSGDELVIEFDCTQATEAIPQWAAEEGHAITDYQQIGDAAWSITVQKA
UniProt P37623: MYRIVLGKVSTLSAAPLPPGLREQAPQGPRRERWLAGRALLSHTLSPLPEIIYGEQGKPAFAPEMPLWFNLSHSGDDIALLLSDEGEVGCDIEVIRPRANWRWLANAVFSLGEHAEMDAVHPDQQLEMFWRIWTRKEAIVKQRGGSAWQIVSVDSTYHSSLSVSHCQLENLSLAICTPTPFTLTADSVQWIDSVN
UniProt P31697: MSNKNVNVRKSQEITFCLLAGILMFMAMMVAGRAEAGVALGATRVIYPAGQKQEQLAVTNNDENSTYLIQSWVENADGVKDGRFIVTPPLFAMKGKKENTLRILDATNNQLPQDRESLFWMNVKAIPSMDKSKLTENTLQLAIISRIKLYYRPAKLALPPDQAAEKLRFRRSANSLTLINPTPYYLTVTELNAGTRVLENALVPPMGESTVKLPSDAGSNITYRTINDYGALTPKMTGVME
UniProt P39333: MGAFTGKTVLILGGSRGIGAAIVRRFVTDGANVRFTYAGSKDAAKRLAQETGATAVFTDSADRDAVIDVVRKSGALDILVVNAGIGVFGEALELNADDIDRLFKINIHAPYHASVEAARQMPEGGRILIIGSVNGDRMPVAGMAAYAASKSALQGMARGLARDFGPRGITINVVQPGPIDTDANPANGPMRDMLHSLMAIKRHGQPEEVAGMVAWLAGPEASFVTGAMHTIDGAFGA
UniProt P37309: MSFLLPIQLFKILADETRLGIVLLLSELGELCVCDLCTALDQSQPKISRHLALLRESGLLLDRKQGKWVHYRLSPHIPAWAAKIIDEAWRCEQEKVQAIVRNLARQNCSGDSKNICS
UniProt P32670: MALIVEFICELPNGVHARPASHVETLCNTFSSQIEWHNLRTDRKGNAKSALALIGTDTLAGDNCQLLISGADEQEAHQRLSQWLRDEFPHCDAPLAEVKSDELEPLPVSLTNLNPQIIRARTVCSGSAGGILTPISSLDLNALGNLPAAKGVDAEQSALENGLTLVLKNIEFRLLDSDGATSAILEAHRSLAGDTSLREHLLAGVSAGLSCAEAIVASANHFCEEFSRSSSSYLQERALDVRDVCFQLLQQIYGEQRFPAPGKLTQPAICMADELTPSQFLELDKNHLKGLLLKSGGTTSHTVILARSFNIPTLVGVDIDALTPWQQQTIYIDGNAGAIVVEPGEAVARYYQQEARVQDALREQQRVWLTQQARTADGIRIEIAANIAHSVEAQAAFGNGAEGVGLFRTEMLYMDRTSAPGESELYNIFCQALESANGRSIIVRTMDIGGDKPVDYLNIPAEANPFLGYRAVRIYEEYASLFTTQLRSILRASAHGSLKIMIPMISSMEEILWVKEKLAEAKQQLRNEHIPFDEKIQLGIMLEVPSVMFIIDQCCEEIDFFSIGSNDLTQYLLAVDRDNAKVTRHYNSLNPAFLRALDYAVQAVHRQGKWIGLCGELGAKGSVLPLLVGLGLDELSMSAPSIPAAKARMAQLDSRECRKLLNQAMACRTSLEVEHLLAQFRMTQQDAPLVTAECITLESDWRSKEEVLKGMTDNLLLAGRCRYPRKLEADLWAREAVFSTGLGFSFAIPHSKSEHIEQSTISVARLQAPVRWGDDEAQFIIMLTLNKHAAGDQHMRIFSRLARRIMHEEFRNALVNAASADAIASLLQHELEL
UniProt P38055: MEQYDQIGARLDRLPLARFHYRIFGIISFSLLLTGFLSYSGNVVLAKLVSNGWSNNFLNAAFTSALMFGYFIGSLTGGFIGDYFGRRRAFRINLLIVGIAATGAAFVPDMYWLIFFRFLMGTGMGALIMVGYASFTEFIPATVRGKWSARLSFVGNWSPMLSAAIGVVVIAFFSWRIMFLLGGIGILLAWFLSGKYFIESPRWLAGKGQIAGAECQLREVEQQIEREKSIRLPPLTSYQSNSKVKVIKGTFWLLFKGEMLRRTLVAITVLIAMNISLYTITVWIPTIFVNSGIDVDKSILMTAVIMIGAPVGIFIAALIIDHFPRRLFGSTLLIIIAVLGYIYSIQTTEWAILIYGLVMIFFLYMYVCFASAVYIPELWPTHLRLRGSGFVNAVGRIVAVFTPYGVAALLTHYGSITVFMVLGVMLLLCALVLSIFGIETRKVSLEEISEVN
UniProt P37590: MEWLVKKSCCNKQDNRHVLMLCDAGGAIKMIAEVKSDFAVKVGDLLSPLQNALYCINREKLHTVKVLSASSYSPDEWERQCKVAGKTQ
UniProt P37613: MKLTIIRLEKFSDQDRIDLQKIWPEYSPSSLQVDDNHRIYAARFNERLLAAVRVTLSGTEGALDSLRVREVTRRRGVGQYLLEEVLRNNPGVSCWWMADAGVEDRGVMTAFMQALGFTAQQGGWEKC
UniProt P38392: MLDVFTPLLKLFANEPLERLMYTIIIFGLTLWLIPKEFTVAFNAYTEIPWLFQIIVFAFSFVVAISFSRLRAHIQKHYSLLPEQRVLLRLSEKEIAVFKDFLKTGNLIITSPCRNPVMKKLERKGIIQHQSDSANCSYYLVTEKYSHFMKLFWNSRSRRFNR
UniProt P31134: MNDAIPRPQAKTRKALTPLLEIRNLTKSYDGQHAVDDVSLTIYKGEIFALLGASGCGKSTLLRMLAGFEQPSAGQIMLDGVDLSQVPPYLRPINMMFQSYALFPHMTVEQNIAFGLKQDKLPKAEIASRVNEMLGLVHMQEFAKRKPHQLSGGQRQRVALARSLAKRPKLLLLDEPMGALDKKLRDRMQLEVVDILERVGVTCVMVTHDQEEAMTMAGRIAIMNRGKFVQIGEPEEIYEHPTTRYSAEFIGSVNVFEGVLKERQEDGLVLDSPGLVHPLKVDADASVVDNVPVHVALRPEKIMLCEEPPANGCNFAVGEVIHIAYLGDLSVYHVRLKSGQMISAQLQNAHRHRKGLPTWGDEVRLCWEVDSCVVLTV

This is a selection; strong and weak results do not stand in their true shares. Small differences around the control level are noise.
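Also: lysate desalted by size exclusion to strip endogenous ATP, peptide intensities built from DIA-NN precursor signals, and peptides missing any value discarded before comparison.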

Compound in the test: Nc1ncnc2c1ncn2[C@@H]1O[C@H](COP(=O)(O)OP(=O)(O)OP(=O)(O)O)[C@@H](O)[C@H]1O [adenosine 5'-triphosphate]
The experiment in a line: log2 fold change of tryptic peptide abundance, ligand vs vehicle (limited proteolysis) (log2 ratio); higher = more trypsin-susceptible (destabilized). The conditions noted are these: ligand concentration: 5 mM; sample: E. coli desalted lysate; replicate design: treated before aliquoting. The protocol: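 HT-PELSA: desalted E. coli K-12 BW25113 lysate (with 12 mM MgCl2) incubated with 5 mM ATP (pH 7) or water for 30 min at 25 C, then a 4 min trypsin pulse at 22 C. Peptides were quantified by DIA-MS (4 replicates). Value is the peptide log2 fold change (treated/control); negative = stabilized. Scale: negative = ligand-stabilized region.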
Consider “UniProt P37757 (peptide sequence: ELGHSETAFLLHSDDSDVR, peptide start residue: 41)”, for which the log2 fold change was 0.748. In the case of “UniProt P32675 (peptide sequence: IMDATQAR, peptide start residue: 178)” it was -0.362; in that of “UniProt P37610 (peptide sequence: VTQHYANADYLPQRR, peptide start residue: 252)”, -0.495; in that of “UniProt P37329 (peptide sequence: LAPAEDVR, peptide start residue: 170)”, 0.249. For “UniProt P39321 (peptide sequence: MTDYTLSMR, peptide start residue: 384)”, the log2 fold change was -0.614.

Take “UniProt P33014 (peptide sequence: KLDVVTQVCPFPLIEAK, peptide start residue: 5)”: the log2 fold change is -0.0291. With “UniProt P37623 (peptide sequence: EQAPQGPR, peptide start residue: 23)”, the log2 fold change is -0.176. Turning to “UniProt P31697 (peptide sequence: TINDYGALTPK, peptide start residue: 225)”, the log2 fold change turned out to be 0.444. Next, “UniProt P39333 (peptide sequence: ILIIGSVNGDR, peptide start residue: 127)”: 0.414; “UniProt P33219 (peptide sequence: GKSADIHYQVSVDCK, peptide start residue: 95)”: 0.298. Next, “UniProt P37309 (peptide sequence: LSPHIPAWAAK, peptide start residue: 73)”: 0.556; “UniProt P32670 (peptide sequence: TSLEVEHLLAQFR, peptide start residue: 669)”: 0.356; “UniProt P38055 (peptide sequence: GQIAGAECQLR, peptide start residue: 208)”: 0.0158. For the target “UniProt P37590 (peptide sequence: HVLMLCDAGGAIK, peptide start residue: 17)”, the log2 fold change was -0.0306. As to “UniProt P37613 (peptide sequence: LTIIRLEK, peptide start residue: 3)”, the log2 fold change is -0.818. With “UniProt P38392 (peptide sequence: TGNLIITSPCR, peptide start residue: 104)”, the log2 fold change is -0.384.

Turning to “UniProt P31134 (peptide sequence: LLLLDEPMGALDKK, peptide start residue: 170)”, the log2 fold change was -0.66.
